Results as given in PMC9821108, “Biochemical and Structural Analyses Shed Light on the Mechanisms of RadD DNA Binding and Its ATPase from Escherichia coli” (International Journal of Molecular Sciences, 2023).
Positions count from the first letter of the chain named. For at least one entry, the source does not settle the construct or the ends of the probe. For some of these results: The comparison behind a weaker result is the experiment's own reference, which may not be listed here. For some of these results: At least one verdict was read from the data and is not stated in words by the source. Where a protein sequence is shown, tags need not be part of it. For some of these results: The direction of at least one scale is not stated here.

Columns and labels:
Assay in all cases: EMSA
[1] = target: T1, RadD K488A (Escherichia coli) (UniProt P33919); conditions: 20 mM Bis-Tris pH 6.5, 50 mM NaCl, 15% glycerol, 10 mM beta-mercaptoethanol, 37 C 30 min, 33 nM HJ, 0-20 uM RadD; 8% native PAGE in 0.5x TBE; text says 'branched DNA'; recombinant protein; folded or branched DNA
T1 sequence (looked up, limits assumed): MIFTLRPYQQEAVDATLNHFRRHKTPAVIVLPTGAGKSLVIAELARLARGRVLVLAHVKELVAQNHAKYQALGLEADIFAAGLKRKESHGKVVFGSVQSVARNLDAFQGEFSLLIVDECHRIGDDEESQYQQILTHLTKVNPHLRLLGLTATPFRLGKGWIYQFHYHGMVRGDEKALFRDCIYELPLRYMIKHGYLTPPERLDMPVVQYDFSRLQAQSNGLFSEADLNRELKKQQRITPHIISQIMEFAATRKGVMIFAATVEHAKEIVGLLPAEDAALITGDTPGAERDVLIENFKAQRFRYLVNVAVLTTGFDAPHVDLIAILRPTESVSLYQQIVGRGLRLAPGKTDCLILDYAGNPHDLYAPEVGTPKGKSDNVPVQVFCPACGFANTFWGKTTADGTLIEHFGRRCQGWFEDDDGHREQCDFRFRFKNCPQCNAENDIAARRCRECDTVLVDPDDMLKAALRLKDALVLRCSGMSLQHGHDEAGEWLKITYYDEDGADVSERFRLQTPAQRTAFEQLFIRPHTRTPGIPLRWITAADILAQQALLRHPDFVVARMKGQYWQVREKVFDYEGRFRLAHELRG

[2] = target: T2, RadD K493A (Escherichia coli) (UniProt P33919); conditions: range for the group; 20 mM Bis-Tris pH 6.5, 50 mM NaCl, 15% glycerol, 10 mM beta-mercaptoethanol, 37 C 30 min, 33 nM HJ, 0-20 uM RadD; 8% native PAGE in 0.5x TBE; text says 'branched DNA'; recombinant protein; folded or branched DNA
T2 sequence (looked up, limits assumed): T1 sequence (looked up, limits assumed) with A488K, K493A

[3] = target: T3, RadD F407A (Escherichia coli) (UniProt P33919); conditions: range for the group; 20 mM Bis-Tris pH 6.5, 50 mM NaCl, 15% glycerol, 10 mM beta-mercaptoethanol, 37 C 30 min, 33 nM HJ, 0-20 uM RadD; 8% native PAGE in 0.5x TBE; text says 'branched DNA'; recombinant protein; folded or branched DNA
T3 sequence (looked up, limits assumed): T1 sequence (looked up, limits assumed) with F407A, A488K

[4] = target: T4, RadD R428A (Escherichia coli) (UniProt P33919); conditions: 20 mM Bis-Tris pH 6.5, 50 mM NaCl, 15% glycerol, 10 mM beta-mercaptoethanol, 37 C 30 min, 33 nM HJ, 0-20 uM RadD; 8% native PAGE in 0.5x TBE; text says 'branched DNA'; recombinant protein; folded or branched DNA
T4 sequence (looked up, limits assumed): T1 sequence (looked up, limits assumed) with R428A, A488K

[5] = target: T5, RadD F393A (Escherichia coli) (UniProt P33919); conditions: range for the group; 20 mM Bis-Tris pH 6.5, 50 mM NaCl, 15% glycerol, 10 mM beta-mercaptoethanol, 37 C 30 min, 33 nM HJ, 0-20 uM RadD; 8% native PAGE in 0.5x TBE; text says 'branched DNA'; recombinant protein; folded or branched DNA
T5 sequence (looked up, limits assumed): T1 sequence (looked up, limits assumed) with F393A, A488K

[6] = target: T6, RadD K396A (Escherichia coli) (UniProt P33919); conditions: range for the group; 20 mM Bis-Tris pH 6.5, 50 mM NaCl, 15% glycerol, 10 mM beta-mercaptoethanol, 37 C 30 min, 33 nM HJ, 0-20 uM RadD; 8% native PAGE in 0.5x TBE; text says 'branched DNA'; recombinant protein; folded or branched DNA
T6 sequence (looked up, limits assumed): T1 sequence (looked up, limits assumed) with K396A, A488K

[7] = target: T7, RadD R507A (Escherichia coli) (UniProt P33919); conditions: range for the group; 20 mM Bis-Tris pH 6.5, 50 mM NaCl, 15% glycerol, 10 mM beta-mercaptoethanol, 37 C 30 min, 33 nM HJ, 0-20 uM RadD; 8% native PAGE in 0.5x TBE; text says 'branched DNA'; recombinant protein; folded or branched DNA
T7 sequence (looked up, limits assumed): T1 sequence (looked up, limits assumed) with A488K, R507A

## CCGCTACCAGTGATCACCAATGGATTGCTAGGACATCTTTGCCCACCTGCAGGTTCACCC / TGGGTGAACCTGCAGGTGGGCAAAGATGTCCTAGCAATCCATTGTCTATGACGTCAAGCTC / GAGCTTGACGTCATAGACAATGGATTGCTAGGACATCTTTGCCGTCTTGTCAATATCGGC / TGCCGATATTGACAAGACGGCAAAGATGTCCTAGCAATCCATTGGTGATCACTGGTAGCGG [Holliday junction (HJ)]
[1]
  binding signal: 31 % of WT
[2]
  binding result: binds more weakly
[3]
  binding result: binds more weakly
[4]
  binding signal: 34 % of WT
[5]
  binding result: binds more weakly
[6]
  binding result: binds more weakly
[7]
  binding result: binds more weakly
